Values from PubChem BioAssay AID504764 (Drosophila RNAi Screening Center, 2011).
The screen tested about 22,000 reagents; shown is an unselected part of those with a known target gene and a result. In the full data, 403 (1.9%) are marked active. 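Unnormalised raw counts per well; ratio z-scores behind the hit calls and whether each hit raises or lowers signal are not deposited.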 A plus sign joins genes that one reagent is predicted to hit. The record does not give: the amount of reagent.

- Purpose: 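Genes whose knock-down alters Notch-dependent transcription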 (primary screen)
- Cell system: Drosophila Kc167 cells
- Knock-down reagent: long dsRNA against Drosophila genes
- Time to read-out: about 5 days (4 days dsRNA, then 24 h after transfection)
- Challenge: transfection of constitutively active membrane-tethered Notch lacking the extracellular domain, read 24 h later
- Measurement: 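Firefly luciferase from an E(spl)m3 reporter with active Notch, plus control-promoter and uninduced reporter wells for normalisation; unnormalised counts, duplicate wells a and b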
- Reading the numbers: induced reporter light, run 1, well a and induced reporter light, run 1, well b: higher = more light from the Notch target reporter with active Notch; control promoter light, run 1, well a and control promoter light, run 1, well b: higher = more light from the viral control promoter (cell number, transfection, viability); uninduced reporter light, run 1, well a: higher = more light from the Notch target reporter without active Notch
- Active means: 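Hit if the duplicate-averaged log2 ratio of induced to control-promoter light gives a plate-wise z beyond ±2, or induced to uninduced beyond ±1.8; weak-control or discordant-duplicate wells dropped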
- Meaning of the calls: active = modifier hit (raised or lowered Notch signal); inactive = not a hit

no.	gene	DRSC id	induced reporter light, run 1, well a	induced reporter light, run 1, well b	control promoter light, run 1, well a	control promoter light, run 1, well b	uninduced reporter light, run 1, well a	Outcome
1	RhoGEF64C (Rho guanine nucleotide exchange factor at 64C)	DRSC08318	1.37e5	1.42e5	92320	45620	12128	inactive
2	RhoGEF64C (Rho guanine nucleotide exchange factor at 64C)	DRSC08319	89455	82155	41905	37980	12990	inactive
3	CG15743	DRSC19709	89820	84650	1.14e5	1.33e5	7005	inactive
4	ATPCL (ATP citrate lyase)	DRSC05913	1.21e5	1.14e5	1.39e5	1.16e5	11185	inactive
5	CG8736	DRSC07255	1.50e5	1.48e5	1.84e5	1.81e5	12555	inactive
6	SLO2 (slowpoke 2)	DRSC06212	8845	7745	10385	9910	1540	inactive
7	SLO2 (slowpoke 2)	DRSC06214	2.30e5	1.91e5	2.02e5	2.19e5	17180	inactive
8	SLO2 (slowpoke 2)	DRSC06216	1.82e5	1.56e5	1.82e5	1.62e5	14270	inactive
9	SLO2 (slowpoke 2)	DRSC06218	2.00e5	2.02e5	2.63e5	2.32e5	19990	inactive
10	SLO2 (slowpoke 2)	DRSC06219	11700	13110	16742	15980	3540	inactive
11	GluRIA (Glutamate receptor IA)	DRSC11176	1.49e5	1.80e5	1.82e5	1.77e5	8025	inactive
12	CG13996	DRSC02328	1.04e5	75005	1.26e5	1.16e5	5300	inactive
13	Lrt (Leucine-rich tendon-specific protein)	DRSC06045	1.09e5	1.08e5	1.85e5	1.88e5	6595	inactive
14	Wdr59 (WD repeat domain 59)	DRSC02771	2.47e5	2.10e5	1.82e5	1.98e5	17060	inactive
15	Taf10b (TBP-associated factor 10b)	DRSC00792	1.03e5	1.03e5	91270	54065	9775	inactive
16	Ciz1 (Ciz1 zinc finger protein)	DRSC09675	1.54e5	1.11e5	1.73e5	1.06e5	7765	inactive
17	betaggt-I (beta subunit of type I geranylgeranyl transferase)	DRSC03494	68030	67320	83235	49035	3740	inactive
18	EMC1 (ER membrane protein complex subunit 1)	DRSC15455	1.36e5	1.26e5	81060	80890	10975	inactive
19	rumpel	DRSC18436	1.29e5	1.10e5	2.41e5	1.99e5	9380	inactive
20	AstCC (Allatostatin double C)	DRSC02404	1.42e5	1.37e5	59985	81335	17605	inactive
21	dsb (debris buster)	DRSC08407	12280	13125	25955	25300	2970	inactive
22	dsb (debris buster)	DRSC08542	91025	94205	1.31e5	1.98e5	5895	inactive
23	NANS (N-acetylneuraminic acid synthase)	DRSC15743	1.44e5	1.53e5	1.44e5	1.22e5	11290	inactive
24	Spn43Ab (Serpin 43Ab)	DRSC06781	2.46e5	2.23e5	2.12e5	1.79e5	17475	active
25	CG31637	DRSC02270	1.01e5	1.06e5	1.14e5	99575	8170	inactive
26	CG31637	DRSC03263	1.26e5	1.31e5	1.51e5	1.77e5	7350	inactive
27	CG10863	DRSC08145	1.39e5	1.10e5	84945	29340	10665	inactive
28	tau	DRSC14569	87720	71555	98585	91490	9715	inactive
29	Dnaaf4 (Dynein axonemal assembly factor 4)	DRSC02405	1.49e5	1.51e5	77320	95645	18360	inactive
30	hpRNA:CR18854 + IP3K1	DRSC02218	1.96e5	1.61e5	1.93e5	2.02e5	17030	inactive
31	CG6415	DRSC02954	2.38e5	2.43e5	2.18e5	2.16e5	16280	inactive
32	Cul3 (Cullin 3)	DRSC03537	1.28e5	1.15e5	66010	68495	11085	inactive
33	Cul3 (Cullin 3)	DRSC21525						inactive
34	Nepl12 (Neprilysin-like 12)	DRSC16411	1.58e5	1.60e5	1.60e5	1.27e5	9165	inactive

Just “uninduced reporter light, run 1, well a”, for 5 of the entries above:
CG13996 [DRSC02328] = 5300
Lrt (Leucine-rich tendon-specific protein) [DRSC06045] = 6595
Wdr59 (WD repeat domain 59) [DRSC02771] = 17060
Taf10b (TBP-associated factor 10b) [DRSC00792] = 9775
Ciz1 (Ciz1 zinc finger protein) [DRSC09675] = 7765
